One experiment concerns the target T1, ELK3 (UniProt P41970).
T1 sequence: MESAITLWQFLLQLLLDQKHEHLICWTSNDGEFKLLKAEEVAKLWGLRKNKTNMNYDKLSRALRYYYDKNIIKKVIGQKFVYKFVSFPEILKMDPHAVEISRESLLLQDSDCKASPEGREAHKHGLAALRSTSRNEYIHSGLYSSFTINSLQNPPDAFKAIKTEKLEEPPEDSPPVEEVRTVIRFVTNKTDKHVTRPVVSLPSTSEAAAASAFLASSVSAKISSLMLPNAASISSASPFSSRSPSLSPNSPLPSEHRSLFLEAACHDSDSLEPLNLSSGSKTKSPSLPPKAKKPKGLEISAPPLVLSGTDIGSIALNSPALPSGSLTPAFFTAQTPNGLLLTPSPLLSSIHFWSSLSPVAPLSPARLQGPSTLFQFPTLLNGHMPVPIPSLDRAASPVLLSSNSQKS
In words: DAPPL (digital affinity profiling via proximity ligation, sequencing). Conditions: 10 mM Tris-HCl pH 7.5, 50 mM NaCl, 1 mM DTT, 4% glycerol, room temperature, 30 min; GST-TFs on glutathione beads, 16-mer random dsDNA library, 0.1% …; high values mean tight binding; double strand, one strand shown; scale: fold enrichment (6-mer frequency, TF over GST control).

The next experiment has as its target T2, ETV3 (UniProt P41162-2).
T2 sequence: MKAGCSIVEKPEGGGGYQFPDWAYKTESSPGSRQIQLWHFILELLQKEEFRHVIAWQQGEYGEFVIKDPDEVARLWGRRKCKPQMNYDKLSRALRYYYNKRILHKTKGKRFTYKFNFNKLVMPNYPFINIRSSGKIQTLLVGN
The experiment is described as above. Conditions: 10 mM Tris-HCl pH 7.5, 50 mM NaCl, 1 mM DTT, 4% glycerol, room temperature, 30 min; GST-TFs on glutathione beads, 16-mer random dsDNA library, 0.1% …; high values mean tight binding; double strand, one strand shown; scale: fold enrichment (6-mer frequency, TF over GST control).

Only a part is listed here, and it is no random draw. At the low end of the ranking, values are background and their order means little.

For GCTAGC, the figures for the binding signal with ELK3 and with ETV3 were 1.22 and 1.16, respectively.

As for ATTCGA, the binding signal turned out to be 1.25 in the experiment with ELK3 and 1.22 with ETV3.

CCACTA: the binding signal in the experiment with ELK3 was 1.22.

For CCCGAT, the binding signal was determined as 1.06 with ELK3 and 1.21 with ETV3.

In the case of GCTTCC, the binding signal with ELK3 was 4.31.

Regarding TTGTTC, the binding signal with ELK3 is 1.39; with ETV3, 1.52.

Take AGTGTT: the binding signal turned out to be 0.975 with ELK3 and 1.08 in the experiment with ETV3.

Regarding GGCTTG, the binding signal with ELK3 was determined as 0.998; in the experiment with ETV3, 0.988.

CAACGC: the binding signal in the experiment with ELK3 was determined as 0.923; with ETV3 it was 1.

AAGCAA returned a binding signal with ELK3 of 0.938.

As for CTCCAG, the values for the binding signal in the experiment with ELK3 and with ETV3 were 1.29 and 1.23, respectively.

As for TCTGTG, in the experiment with ELK3, the binding signal was 0.999.

For CCTGCC, the binding signal with ELK3 was determined as 1.13.

In turn, TGTGCA displayed a binding signal with ELK3 of 0.963.

Regarding TTAGCA, in the experiment with ELK3, the binding signal amounted to 1.17.

Turning to CTAGCG, the binding signal with ELK3 is 0.963; with ETV3, 1.15.

For the sequence CCTAAG, the binding signal with ELK3 was 1.17; in the experiment with ETV3, 1.06.

On to ACCCGA, for which the binding signal with ELK3 amounted to 0.99; in the experiment with ETV3 it was 1.05.

As for ATTTAG, the values for the binding signal with ELK3 and with ETV3 were 1.09 and 1.12, respectively.

In the experiment with ELK3, CCGTAT yielded a binding signal of 1.32.

In the experiment with ELK3, ACAACA showed a binding signal of 1.19.

TTCAAT showed a binding signal with ELK3 of 1.26.

The sequence CATTTT gave a binding signal with ELK3 of 1.15.

GTCTCC yielded a binding signal in the experiment with ELK3 of 1.56.

The sequence CTGATT returned a binding signal in the experiment with ELK3 of 1.21.

Turning to TTCATT, in the experiment with ELK3, the binding signal came to 1.23.

Take TACAGA: the binding signal in the experiment with ELK3 was 1.06.

Regarding ATAATC, the binding signal in the experiment with ELK3 was determined as 1.17.

Consider TTCGAG, for which the binding signal in the experiment with ELK3 is 1.3.

The sequence AAGATC registered a binding signal with ELK3 of 1.02.

As to CTTAAC, in the experiment with ELK3, the binding signal was 1.31.

For CCCAAA, the binding signal with ELK3 was determined as 1.1.

On to TGCGTT, for which the binding signal with ELK3 amounted to 1.13.

For the sequence CTAACC, in the experiment with ELK3, the binding signal worked out at 1.29.

Take GAACAA: the binding signal with ELK3 was 1.2.

The sequence GAAATT registered a binding signal with ELK3 of 1.28.

In turn, GATATG displayed a binding signal in the experiment with ELK3 of 1.04.

For GATGGG, the binding signal in the experiment with ELK3 stood at 0.979.

Take GAAGAA: the binding signal with ELK3 turned out to be 1.13.

Turning to TTGAGG, the binding signal in the experiment with ELK3 was 0.96.

For TTGTAT, in the experiment with ELK3, the binding signal was found to be 1.4.

For the sequence GTTTTG, the binding signal in the experiment with ELK3 came out at 1.11.

TAAGCA: in the experiment with ELK3, the binding signal was determined as 0.928.

Turning to CTTTGA, the binding signal with ELK3 came out at 1.15.

Sequence CCGTTT registered a binding signal with ELK3 of 1.35.

Turning to CGTCAA, the binding signal in the experiment with ELK3 came to 1.06.

CGATAG gave a binding signal in the experiment with ELK3 of 1.11.

GAAGTC gave a binding signal with ELK3 of 1.19.

Turning to CTCATA, the binding signal with ELK3 was 1.34.

For AACCAC, the binding signal with ELK3 came out at 1.29.

GTGCCT yielded a binding signal with ELK3 of 0.994.

TCACCA had a binding signal with ELK3 of 1.22.

TTTGTA had a binding signal in the experiment with ELK3 of 1.51.

For TAGCTC, the binding signal in the experiment with ELK3 is 1.28.

Regarding TAGCTG, the binding signal with ELK3 is 0.92.

AACATT: in the experiment with ELK3, the binding signal came out at 1.25.

ATAGAT returned a binding signal with ELK3 of 1.23.

In the experiment with ELK3, TATGTG showed a binding signal of 0.989.

Regarding CATTAA, the binding signal with ELK3 was 0.908.

In the experiment with ELK3, CGGTCT yielded a binding signal of 1.18.

AGTAAT showed a binding signal in the experiment with ELK3 of 1.12.

For CCGCAT, in the experiment with ELK3, the binding signal amounted to 1.6.

CTATCG registered a binding signal with ELK3 of 1.08.

In the case of TCTACA, in the experiment with ELK3, the binding signal worked out at 1.23.

Consider TGATTT, for which, in the experiment with ELK3, the binding signal was 1.11.

Consider AACGCC, for which, in the experiment with ELK3, the binding signal is 0.988.

CATGTA displayed a binding signal with ELK3 of 1.13.

On to TCAAAT, for which, in the experiment with ELK3, the binding signal was 1.03.

In the experiment with ELK3, ATTTGT showed a binding signal of 1.24.

Sequence TCACGT gave a binding signal with ELK3 of 1.16.

GCTGGT yielded a binding signal with ELK3 of 1.19.

AATAGG came in with a binding signal with ELK3 of 1.14.

On to TAAACC, for which the binding signal with ELK3 worked out at 1.25.

AGCAAT had a binding signal with ELK3 of 1.05.

ACATGT returned a binding signal with ELK3 of 1.06.

Turning to AACCCC, the binding signal in the experiment with ELK3 stood at 1.14.

For CCGCGC, the binding signal with ELK3 is 1.24.

As to TTATAA, the binding signal with ELK3 was determined as 1.33.

Turning to TGCCTA, in the experiment with ELK3, the binding signal amounted to 0.878.

For the sequence CATCTC, in the experiment with ELK3, the binding signal worked out at 1.22.

Turning to TCAATT, the binding signal in the experiment with ELK3 came out at 0.989.

GTCCTT gave a binding signal with ELK3 of 1.25.

ATTATC came in with a binding signal in the experiment with ELK3 of 1.32.

ACTCAT: the binding signal with ELK3 was determined as 1.34.

In the experiment with ELK3, ACTATC had a binding signal of 1.07.

GCCGCC displayed a binding signal with ELK3 of 1.15.

In the experiment with ELK3, ATACAT registered a binding signal of 1.32.

For TGACCA, the binding signal in the experiment with ELK3 came to 1.45.

In the experiment with ELK3, CCCTAG registered a binding signal of 0.948.

The sequence TACGCA returned a binding signal with ELK3 of 1.25.

With CTGGCA, in the experiment with ELK3, the binding signal came to 1.43.

In the experiment with ELK3, TGTATT registered a binding signal of 1.43.

TTGGTT registered a binding signal with ELK3 of 1.43.

As to GATTCA, in the experiment with ELK3, the binding signal was 1.1.

In turn, ATATAT had a binding signal with ELK3 of 1.4.

AACCCG showed a binding signal in the experiment with ELK3 of 1.49.

With CTACGC, the binding signal with ELK3 was determined as 1.56.

(Values after PMC7862700.)
